PubChem BioAssay AID504764 – Drosophila RNAi Screening Center – 2011

Screen: 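Genome-wide screen for regulators of Notch-driven gene expression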 (primary screen)
Cells: Drosophila Kc167 cells
Reagent: long dsRNA against Drosophila genes
Duration: about 5 days (4 days dsRNA, then 24 h after transfection)
Challenge: transfection of constitutively active membrane-tethered Notch lacking the extracellular domain, read 24 h later
Measured: 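Light from a Notch-responsive E(spl)m3 luciferase reporter under active Notch, with control-promoter and no-Notch reporter wells to normalise; raw counts from paired wells a and b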
Reading the numbers: induced reporter light, run 1, well a and induced reporter light, run 1, well b: higher = more light from the Notch target reporter with active Notch; control promoter light, run 1, well a and control promoter light, run 1, well b: higher = more light from the viral control promoter (cell number, transfection, viability); uninduced reporter light, run 1, well a: higher = more light from the Notch target reporter without active Notch
Active means: 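Wells with low control signal or poorly matching duplicates excluded; duplicates averaged; per source plate, z beyond ±2 for induced/control log2 ratio or beyond ±1.8 for induced/uninduced marks a hit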
Calls: active = modifier hit (raised or lowered Notch signal); inactive = not a hit
In all, the deposit lists about 22,000 reagents; this is a random part of those that have a named target and a result. In the full data, 403 (1.9%) got an active call. 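Unnormalised raw counts per well; ratio z-scores behind the hit calls and whether each hit raises or lowers signal are not deposited.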 A number with no mark means an inactive call. Reagents against one gene are numbered here. The record does not give: the amount of reagent.

gene	reagent	induced reporter light, run 1, well a	induced reporter light, run 1, well b	control promoter light, run 1, well a	control promoter light, run 1, well b	uninduced reporter light, run 1, well a
CG13044	1	1.16e5	95800	1.51e5	1.47e5	6920
CG32726	1	88625	72900	83115	84435	5845
CG31673	1	1.42e5	1.35e5	1.21e5	1.10e5	9630
CG11638	1	1.07e5	1.22e5	1.71e5	2.20e5	8700
CG11638	2	75105	74710	1.09e5	1.31e5	7240
CG15611	1	84150	87810	1.62e5	1.96e5	9895
CG15611	2	1.09e5	1.12e5	1.22e5	1.15e5	8188
Sgt1 (suppressor-of-G2-allele-of-skp1)	1	1.30e5	1.22e5	1.12e5	1.07e5	9990
net	1	2.06e5	1.66e5	1.31e5	99345	12990
l(2)SH0834 (lethal (2) SH0834)	1	96620	98370	59985	78355	12495
Psf1 (Partner of Sld Five 1)	1	1.02e5	1.11e5	2.19e5	2.37e5	10225
CG15930	1	1.73e5	1.73e5	3.11e5	2.64e5	13688
CG31559	1	76790	91400	70230	79655	5590
CG31559	2	32980	29255	23560	26435	1910
fz3 (frizzled 3)	1	1.19e5	1.28e5	1.65e5	1.90e5	8045
CG10950	1	1.27e5	1.19e5	98825	1.08e5	8585
Lmx1a (LIM homeobox transcription factor 1 alpha)	1	1.49e5	1.01e5	1.61e5	1.22e5	6465
Lmx1a (LIM homeobox transcription factor 1 alpha)	2	8815	8365	10935	7315	3200
qm (quemao)	1	2.56e5	2.36e5	2.76e5	3.08e5	12255
CG32407	1	3.37e5	3.24e5	3.83e5	3.07e5	11682
Hs2st (Heparan sulfate 2-O-sulfotransferase)	1	2.09e5	1.91e5	1.92e5	2.28e5	16940
CG14196	1	89845	1.29e5	1.17e5	1.18e5	11270
Rbp1 (RNA-binding protein 1)	1	1.61e5	1.71e5	86795	84345	10905
Gk1 (Glycerol kinase 1)	1	95205	1.01e5	1.76e5	2.32e5	7950
Gk1 (Glycerol kinase 1)	2	1.57e5	2.08e5	2.51e5	2.88e5	11770
CG32221	1	2.34e5	3.08e5	3.80e5	3.40e5	23570
CG3927	1	1.59e5	1.47e5	1.44e5	1.15e5	12120
CR42548 (pseudo)	1	1.75e5	1.61e5	2.22e5	2.76e5	16750
Awh (Arrowhead)	1	1.18e5	1.54e5	1.92e5	1.87e5	8915
Cbp20 (cap binding protein 20)	1	2.17e5 (active)	1.94e5	1.55e5	1.31e5	12805
EMC2B (ER membrane protein complex subunit 2B)	1	1.88e5	1.96e5	2.07e5	2.02e5	15905
Drgx (Dorsal root ganglia homeobox)	1	80165	58060	55585	56085	5715
Drgx (Dorsal root ganglia homeobox)	2	65520	49330	74385	68045	4490

A few values from the entries so far.
CG31673, control promoter light, run 1, well b: 1.10e5
For “control promoter light, run 1, well a”, CG13044 reads 1.51e5
Drgx (Dorsal root ganglia homeobox) #2, control promoter light, run 1, well b: 68045

Continued:
gene	reagent	induced reporter light, run 1, well a	induced reporter light, run 1, well b	control promoter light, run 1, well a	control promoter light, run 1, well b	uninduced reporter light, run 1, well a
CRAT (Carnitine O-Acetyl-Transferase)	1	58710	86970	59905	66410	6715
crq (croquemort)	1	1.02e5	95315	84775	64775	8142
CG12923	1	1.93e5	2.06e5	2.67e5	2.60e5	19755
CG11122	1	1.44e5	1.62e5	2.18e5	2.04e5	11190
GlcAT-I (Glucuronyltransferase I)	1	55150	68645	70660	82970	4765
Pi4KIIalpha (Phosphatidylinositol 4-kinase II alpha)	1	1.30e5	1.48e5	90375	76950	11780
Pi4KIIalpha (Phosphatidylinositol 4-kinase II alpha)	2	68375	80600	1.10e5	73485	7360
knrl (knirps-like)	1	1.10e5	85905	61095	62845	7890
CG11155	1	61875	59225	63310	71610	5170
CG11155	2	1.89e5	1.75e5	1.96e5	2.16e5	10345
CG31999	1	1.10e5	1.00e5	1.92e5	1.73e5	9075
CG31999	2	1.30e5	1.19e5	1.70e5	2.32e5	10800
CG6870	1	1.43e5	1.48e5	1.45e5	1.91e5	11360
Keap1	1	1.57e5	1.67e5	1.58e5	1.39e5	14660
CG1208	1	1.09e5	86595	77145	70895	7280
snk (snake)	1	2.75e5	2.53e5	2.63e5	2.87e5	19845
ND4 (retired record)	1	93895	1.09e5	95285	1.18e5	10240
